# This is one part of the list. The calls rarely recur for the same compound in another form.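 In K562 cells expressing nanoluciferase-fused kinases, luminescence was recorded at 4 h intervals between 2 and 18 h, normalized as percent of control with DMSO at 100% and a positive control at 0%. A significant (2 sigma) signal drop marks a time point as decreased. The authors' rule for a hit is not shown and takes in more than the number of time points.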
# Chains of the proteins cited; added tags and fusions are not shown. Lines headed by an entry give the natural chain unless they say otherwise; changes in a name come on top.
# UniProt Q15418, whole entry: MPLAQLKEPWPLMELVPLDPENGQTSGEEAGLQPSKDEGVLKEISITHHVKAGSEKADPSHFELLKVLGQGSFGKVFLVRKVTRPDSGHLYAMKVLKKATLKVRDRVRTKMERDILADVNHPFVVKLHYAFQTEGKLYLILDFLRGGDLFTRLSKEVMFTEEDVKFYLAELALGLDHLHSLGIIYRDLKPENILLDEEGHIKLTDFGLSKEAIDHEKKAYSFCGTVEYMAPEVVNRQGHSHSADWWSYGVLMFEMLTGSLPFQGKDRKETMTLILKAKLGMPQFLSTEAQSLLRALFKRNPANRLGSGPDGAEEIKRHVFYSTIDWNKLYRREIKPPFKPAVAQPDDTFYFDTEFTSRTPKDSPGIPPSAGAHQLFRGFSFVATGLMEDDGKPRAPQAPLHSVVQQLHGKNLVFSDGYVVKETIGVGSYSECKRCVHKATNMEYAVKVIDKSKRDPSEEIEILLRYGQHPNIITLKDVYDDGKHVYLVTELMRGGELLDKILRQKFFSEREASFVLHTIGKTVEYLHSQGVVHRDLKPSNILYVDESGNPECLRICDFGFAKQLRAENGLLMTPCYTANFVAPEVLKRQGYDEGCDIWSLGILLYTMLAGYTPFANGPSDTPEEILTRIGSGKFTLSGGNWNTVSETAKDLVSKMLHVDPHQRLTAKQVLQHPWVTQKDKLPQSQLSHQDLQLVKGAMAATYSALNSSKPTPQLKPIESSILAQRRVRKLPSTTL
# UniProt Q9NYA1, whole entry: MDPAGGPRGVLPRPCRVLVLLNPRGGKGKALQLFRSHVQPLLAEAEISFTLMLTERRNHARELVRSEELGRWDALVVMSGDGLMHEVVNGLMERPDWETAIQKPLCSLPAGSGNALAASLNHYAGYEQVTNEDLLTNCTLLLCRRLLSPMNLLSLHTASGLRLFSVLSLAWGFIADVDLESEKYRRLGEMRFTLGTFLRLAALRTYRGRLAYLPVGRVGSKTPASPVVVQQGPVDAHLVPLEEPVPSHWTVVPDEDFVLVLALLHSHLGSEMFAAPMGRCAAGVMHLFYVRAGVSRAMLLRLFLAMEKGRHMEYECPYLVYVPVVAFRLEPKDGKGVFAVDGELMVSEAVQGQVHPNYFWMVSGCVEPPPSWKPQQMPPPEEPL
# UniProt Q9Y6E0: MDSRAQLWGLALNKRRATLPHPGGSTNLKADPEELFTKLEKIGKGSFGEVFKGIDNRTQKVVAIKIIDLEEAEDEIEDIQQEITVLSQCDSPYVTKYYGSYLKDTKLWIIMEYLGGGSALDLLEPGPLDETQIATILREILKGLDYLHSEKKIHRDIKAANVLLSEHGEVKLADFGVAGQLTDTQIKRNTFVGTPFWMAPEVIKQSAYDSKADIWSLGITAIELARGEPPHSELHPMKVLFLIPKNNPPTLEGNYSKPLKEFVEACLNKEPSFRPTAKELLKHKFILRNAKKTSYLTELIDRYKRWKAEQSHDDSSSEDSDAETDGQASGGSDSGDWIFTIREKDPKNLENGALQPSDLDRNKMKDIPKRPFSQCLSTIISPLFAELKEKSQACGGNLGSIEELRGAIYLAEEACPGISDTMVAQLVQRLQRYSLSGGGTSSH
# UniProt Q15208: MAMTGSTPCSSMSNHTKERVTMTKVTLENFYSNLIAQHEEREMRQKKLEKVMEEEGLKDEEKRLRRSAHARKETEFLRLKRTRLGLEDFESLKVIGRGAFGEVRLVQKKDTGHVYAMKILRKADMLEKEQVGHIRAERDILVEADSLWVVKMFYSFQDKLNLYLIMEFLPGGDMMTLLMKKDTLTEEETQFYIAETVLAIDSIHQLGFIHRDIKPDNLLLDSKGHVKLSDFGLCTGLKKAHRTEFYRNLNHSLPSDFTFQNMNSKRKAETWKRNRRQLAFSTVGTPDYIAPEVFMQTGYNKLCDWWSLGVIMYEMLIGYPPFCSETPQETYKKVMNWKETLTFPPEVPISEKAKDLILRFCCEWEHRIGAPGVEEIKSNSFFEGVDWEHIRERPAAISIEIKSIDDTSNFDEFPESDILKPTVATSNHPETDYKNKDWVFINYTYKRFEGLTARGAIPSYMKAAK
# UniProt P42680: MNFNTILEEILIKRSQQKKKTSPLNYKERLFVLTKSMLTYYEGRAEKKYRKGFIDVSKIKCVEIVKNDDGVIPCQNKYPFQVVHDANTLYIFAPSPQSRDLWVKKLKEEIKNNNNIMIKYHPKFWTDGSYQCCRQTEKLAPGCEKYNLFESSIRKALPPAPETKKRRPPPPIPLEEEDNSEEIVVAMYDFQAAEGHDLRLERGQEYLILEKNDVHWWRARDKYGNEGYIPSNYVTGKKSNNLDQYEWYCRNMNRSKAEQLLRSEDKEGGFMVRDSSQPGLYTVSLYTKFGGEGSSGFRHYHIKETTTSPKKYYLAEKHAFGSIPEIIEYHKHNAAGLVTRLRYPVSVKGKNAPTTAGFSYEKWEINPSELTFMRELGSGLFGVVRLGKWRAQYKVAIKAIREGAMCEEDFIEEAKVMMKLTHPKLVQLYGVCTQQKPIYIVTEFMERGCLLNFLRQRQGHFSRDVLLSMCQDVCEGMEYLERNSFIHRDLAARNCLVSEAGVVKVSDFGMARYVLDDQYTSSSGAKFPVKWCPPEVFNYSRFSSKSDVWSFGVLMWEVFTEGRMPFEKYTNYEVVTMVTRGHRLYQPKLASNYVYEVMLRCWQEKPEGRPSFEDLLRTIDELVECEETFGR
# UniProt P29597: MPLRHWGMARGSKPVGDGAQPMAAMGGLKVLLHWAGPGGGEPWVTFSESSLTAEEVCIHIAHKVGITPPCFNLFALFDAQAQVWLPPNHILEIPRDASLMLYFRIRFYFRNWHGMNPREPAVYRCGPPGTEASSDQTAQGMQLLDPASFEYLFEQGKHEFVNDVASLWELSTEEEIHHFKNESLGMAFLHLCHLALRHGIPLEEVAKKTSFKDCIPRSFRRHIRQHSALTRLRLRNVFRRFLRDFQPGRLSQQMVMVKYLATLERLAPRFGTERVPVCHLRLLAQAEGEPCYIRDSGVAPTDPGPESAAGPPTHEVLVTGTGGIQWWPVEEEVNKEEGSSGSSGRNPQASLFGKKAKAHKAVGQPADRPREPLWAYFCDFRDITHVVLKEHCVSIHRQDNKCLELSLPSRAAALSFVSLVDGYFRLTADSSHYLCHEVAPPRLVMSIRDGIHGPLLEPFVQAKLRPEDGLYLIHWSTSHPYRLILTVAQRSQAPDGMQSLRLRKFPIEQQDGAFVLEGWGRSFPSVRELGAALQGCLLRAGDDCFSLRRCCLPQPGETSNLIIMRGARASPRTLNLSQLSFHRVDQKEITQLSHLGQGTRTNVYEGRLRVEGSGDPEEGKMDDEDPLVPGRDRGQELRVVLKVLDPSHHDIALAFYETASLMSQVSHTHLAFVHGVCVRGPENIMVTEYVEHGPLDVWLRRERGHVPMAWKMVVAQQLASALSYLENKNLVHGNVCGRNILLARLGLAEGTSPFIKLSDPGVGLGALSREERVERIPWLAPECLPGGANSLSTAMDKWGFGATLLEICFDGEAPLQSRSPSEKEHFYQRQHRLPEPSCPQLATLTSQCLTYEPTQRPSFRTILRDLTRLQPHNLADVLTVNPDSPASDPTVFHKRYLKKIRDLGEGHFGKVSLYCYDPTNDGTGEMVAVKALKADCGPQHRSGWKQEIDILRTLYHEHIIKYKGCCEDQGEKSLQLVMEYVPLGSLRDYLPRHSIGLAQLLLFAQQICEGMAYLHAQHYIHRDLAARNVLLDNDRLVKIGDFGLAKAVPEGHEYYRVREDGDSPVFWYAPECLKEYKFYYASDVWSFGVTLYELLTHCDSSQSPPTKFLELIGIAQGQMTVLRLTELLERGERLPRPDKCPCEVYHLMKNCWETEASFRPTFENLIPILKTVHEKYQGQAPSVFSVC
# UniProt Q6PHR2: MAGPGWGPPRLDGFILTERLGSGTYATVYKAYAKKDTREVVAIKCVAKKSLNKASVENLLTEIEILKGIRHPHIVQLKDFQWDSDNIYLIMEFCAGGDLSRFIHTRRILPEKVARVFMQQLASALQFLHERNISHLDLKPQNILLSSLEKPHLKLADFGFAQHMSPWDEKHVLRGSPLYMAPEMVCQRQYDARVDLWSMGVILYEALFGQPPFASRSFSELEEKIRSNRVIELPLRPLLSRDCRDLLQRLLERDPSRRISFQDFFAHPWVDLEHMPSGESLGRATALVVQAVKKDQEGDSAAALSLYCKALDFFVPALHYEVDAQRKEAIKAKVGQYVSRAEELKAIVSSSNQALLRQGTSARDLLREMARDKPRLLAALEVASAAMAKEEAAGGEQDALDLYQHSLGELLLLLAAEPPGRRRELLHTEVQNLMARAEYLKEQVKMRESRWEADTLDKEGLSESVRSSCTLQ
# UniProt P07947, whole entry, looked up: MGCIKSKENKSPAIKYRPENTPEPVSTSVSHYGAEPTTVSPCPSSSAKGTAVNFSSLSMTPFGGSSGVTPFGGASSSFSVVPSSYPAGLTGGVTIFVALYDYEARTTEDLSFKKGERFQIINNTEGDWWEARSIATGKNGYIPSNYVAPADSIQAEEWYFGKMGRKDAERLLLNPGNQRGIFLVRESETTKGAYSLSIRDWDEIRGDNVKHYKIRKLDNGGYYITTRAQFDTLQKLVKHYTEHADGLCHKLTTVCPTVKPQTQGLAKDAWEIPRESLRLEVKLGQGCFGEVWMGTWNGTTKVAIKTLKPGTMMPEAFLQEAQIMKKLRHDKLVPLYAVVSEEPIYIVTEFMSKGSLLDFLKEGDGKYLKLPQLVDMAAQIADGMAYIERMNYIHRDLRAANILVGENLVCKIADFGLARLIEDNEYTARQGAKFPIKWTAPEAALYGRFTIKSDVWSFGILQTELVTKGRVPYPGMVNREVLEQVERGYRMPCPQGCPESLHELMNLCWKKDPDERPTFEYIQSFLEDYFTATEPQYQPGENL
# UniProt P43403: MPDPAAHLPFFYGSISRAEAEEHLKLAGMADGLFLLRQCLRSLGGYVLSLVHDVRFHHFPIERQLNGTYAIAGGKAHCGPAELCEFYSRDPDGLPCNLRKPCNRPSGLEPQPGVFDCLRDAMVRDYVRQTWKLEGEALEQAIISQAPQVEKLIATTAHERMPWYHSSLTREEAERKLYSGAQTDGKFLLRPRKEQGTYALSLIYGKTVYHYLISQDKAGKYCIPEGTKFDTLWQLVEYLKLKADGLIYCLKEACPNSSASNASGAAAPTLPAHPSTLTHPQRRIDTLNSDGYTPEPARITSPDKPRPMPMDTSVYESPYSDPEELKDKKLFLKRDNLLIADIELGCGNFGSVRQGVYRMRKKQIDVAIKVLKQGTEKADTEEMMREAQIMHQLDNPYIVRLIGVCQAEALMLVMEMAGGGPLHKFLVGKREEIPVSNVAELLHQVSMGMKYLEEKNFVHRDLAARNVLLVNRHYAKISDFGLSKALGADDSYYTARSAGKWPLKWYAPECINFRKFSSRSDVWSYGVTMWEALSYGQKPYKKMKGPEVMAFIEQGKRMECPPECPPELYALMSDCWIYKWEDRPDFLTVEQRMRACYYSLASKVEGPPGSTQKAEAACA
# UniProt P11802: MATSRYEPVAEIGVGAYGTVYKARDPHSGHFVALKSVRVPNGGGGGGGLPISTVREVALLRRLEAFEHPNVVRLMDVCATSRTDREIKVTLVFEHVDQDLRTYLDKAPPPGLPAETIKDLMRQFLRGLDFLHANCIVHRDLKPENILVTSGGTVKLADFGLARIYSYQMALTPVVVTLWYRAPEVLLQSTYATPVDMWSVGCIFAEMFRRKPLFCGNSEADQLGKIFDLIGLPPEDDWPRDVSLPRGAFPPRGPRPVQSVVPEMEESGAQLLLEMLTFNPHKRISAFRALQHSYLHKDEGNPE
# UniProt P50613: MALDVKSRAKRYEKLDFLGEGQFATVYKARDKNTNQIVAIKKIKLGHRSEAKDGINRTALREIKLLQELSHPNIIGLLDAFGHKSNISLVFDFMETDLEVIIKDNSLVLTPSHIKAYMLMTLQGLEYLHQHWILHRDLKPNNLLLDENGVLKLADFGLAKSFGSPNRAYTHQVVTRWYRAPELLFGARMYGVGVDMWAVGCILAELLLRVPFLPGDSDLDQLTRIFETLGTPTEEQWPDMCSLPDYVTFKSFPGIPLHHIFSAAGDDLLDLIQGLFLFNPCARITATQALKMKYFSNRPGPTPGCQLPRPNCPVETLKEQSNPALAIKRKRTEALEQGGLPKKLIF
# UniProt P50750, whole entry: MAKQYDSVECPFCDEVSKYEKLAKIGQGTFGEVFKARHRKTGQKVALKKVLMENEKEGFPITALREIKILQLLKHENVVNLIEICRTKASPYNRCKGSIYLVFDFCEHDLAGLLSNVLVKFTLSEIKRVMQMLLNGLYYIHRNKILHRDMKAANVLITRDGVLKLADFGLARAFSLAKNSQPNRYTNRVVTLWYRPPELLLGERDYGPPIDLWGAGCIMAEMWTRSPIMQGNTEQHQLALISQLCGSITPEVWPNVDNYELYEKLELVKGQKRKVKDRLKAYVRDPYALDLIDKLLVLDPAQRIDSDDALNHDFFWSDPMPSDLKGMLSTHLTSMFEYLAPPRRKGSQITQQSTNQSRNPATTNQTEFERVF
# What was measured:
# Settings in all cases: K562; 2-18 h
# ROR2 = ROR2 (UniProt Q01974); assay: number of time points (of 5) at which kinase-Nluc abundance scored as decreased, DMSO-normalised (count); higher = more persistent destabilization
# RPS6KA1 = RPS6KA1 (UniProt Q15418); assay: as above
# SPHK1 = SPHK1 (UniProt Q9NYA1); assay: as above
# SRC = SRC (UniProt P12931); assay: as above
# STK24 = STK24 (UniProt Q9Y6E0); assay: as above
# STK38 = STK38 (UniProt Q15208); assay: as above
# SYK = SYK (UniProt P43405); assay: as above
# TEC = TEC (UniProt P42680); assay: as above
# TYK2 = TYK2 (UniProt P29597); assay: as above
# ULK3 = ULK3 (UniProt Q6PHR2); assay: as above
# YES1 = YES1 (UniProt P07947); assay: as above
# ZAK = ZAK (UniProt Q9NYL2); assay: as above
# ZAP70 = ZAP70 (UniProt P43403); assay: as above
# CDK4 = CDK4 (UniProt P11802); assay: number of time points (of 4; 2 h point missing) at which kinase-Nluc abundance scored as decreased, DMSO-normalised (count); higher = more persistent destabilization
# CDK7 = CDK7 (UniProt P50613); assay: as above
# CDK9 = CDK9 (UniProt P50750); assay: as above
Compound,number of time points (ROR2),number of time points (RPS6KA1),number of time points (SPHK1),number of time points (SRC),number of time points (STK24),number of time points (STK38),number of time points (SYK),number of time points (TEC),number of time points (TYK2),number of time points (ULK3),number of time points (YES1),number of time points (ZAK),number of time points (ZAP70),number of time points (CDK4),number of time points (CDK7),number of time points (CDK9)
N#CCC1CCN(c2nc(Nc3ccc(N4CCC(O)CC4)cc3)c3c(=O)[nH]ncc3n2)CC1 [Gusacitinib] (10 µM),0,0,0,0,0,0,0,0,0,0,0,0,0,0,0,0
O=C(NOCC(O)CO)c1cc(Br)c(F)c(F)c1Nc1ccc(I)cc1F (stereo not drawn) (2.5 µM),0,0,0,0,0,0,0,0,0,0,0,0,0,0,0,0
Nc1ncnc2c1c(-c1ccc(Oc3ccccc3)cc1)nn2C1CCCC1 (2.5 µM),0,0,0,0,0,0,0,0,1,0,0,0,0,0,0,0
COc1cc2c(cc1OC)CN(S(=O)(=O)c1ccc(OC)c(N3CCN(C(=O)c4ccc(F)cc4C(F)(F)F)CC3)c1)CC2 (10 µM),0,0,0,0,0,0,0,0,0,0,0,0,0,0,0,0
Cn1nccc1Nc1nccc(-c2ccn([C@H](CO)c3ccc(Cl)c(F)c3)c(=O)c2)n1 [Ravoxertinib] (10 µM),0,0,0,0,0,0,0,0,0,0,0,0,0,0,0,0
C=CC(=O)Nc1cccc(Nc2nc(Nc3ccc(NC4CN(CCF)C4)cc3OC)ncc2C(F)(F)F)c1 (2.5 µM),0,0,0,0,0,0,0,0,0,0,0,0,0,0,0,0
CC(C)(O)CNc1ncc(-c2ccnc(Nc3ccnc(Cl)c3)n2)c(CC2CC2)n1 (2.5 µM),0,0,0,0,0,0,0,0,0,0,0,0,0,0,0,0
CCN1CCN(Cc2ccc(-c3cc4c(N[C@H](C)c5ccccc5)ncnc4[nH]3)cc2)CC1 (2.5 µM),0,0,0,0,0,0,0,2,2,3,3,0,0,0,3,1
Nc1nc2ccc(Cl)cc2c2nc(-c3ccco3)nn12 (10 µM),0,0,0,0,0,0,0,0,1,0,0,0,0,0,0,0
Cn1cc(-c2ccc3c(c2)CCN3C(=O)Cc2cccc(C(F)(F)F)c2)c2c(N)ncnc21 (2.5 µM),0,0,0,0,0,0,0,0,0,0,0,0,0,0,0,0
CNc1nc(Nc2ccc(C(=O)N3CCOCC3)cc2OC)nc2[nH]cc(Cl)c12 (2.5 µM),0,0,0,0,0,0,0,0,0,0,0,0,0,0,0,0
C=CC(=O)Nc1cc(C)ccc1Nc1nc(Nc2cc(OC)ncc2C)ncc1C(F)(F)F (10 µM),0,0,0,0,0,0,0,0,0,0,0,0,0,0,0,0
COc1ccccc1-c1cc(Nc2cccc(CS(N)(=O)=O)c2)ncn1 (10 µM),0,0,0,0,0,0,0,0,0,0,3,0,0,0,3,2

# Complete entries from above. Order of values: number of time points (ROR2) | number of time points (RPS6KA1) | number of time points (SPHK1) | number of time points (SRC) | number of time points (STK24) | number of time points (STK38) | number of time points (SYK) | number of time points (TEC) | number of time points (TYK2) | number of time points (ULK3) | number of time points (YES1) | number of time points (ZAK) | number of time points (ZAP70) | number of time points (CDK4) | number of time points (CDK7) | number of time points (CDK9)
# C=CC(=O)Nc1cc(C)ccc1Nc1nc(Nc2cc(OC)ncc2C)ncc1C(F)(F)F (10 µM) reads 0 | 0 | 0 | 0 | 0 | 0 | 0 | 0 | 0 | 0 | 0 | 0 | 0 | 0 | 0 | 0
# COc1ccccc1-c1cc(Nc2cccc(CS(N)(=O)=O)c2)ncn1 (10 µM) reads 0 | 0 | 0 | 0 | 0 | 0 | 0 | 0 | 0 | 0 | 3 | 0 | 0 | 0 | 3 | 2
